No constants are given. Whether binding was seen depends on the method and setting. In cells and extracts the contact can be indirect. Some results given as binding are weak or reduced against the parent protein; the word gives no strength. Where a sequence is shown, tags or fusion partners need not be part of it.
How the values were obtained:
Test in all cases: FRET or BRET; COS-7 cells co-transfected with mVenus and mCherry fusions, fixed with 4% paraformaldehyde; Operetta High Content Imaging System; FRET efficiencies
[1] = molecular target: full-length human wild-type B4GalT1 fused to mVenus or mCherry (human) (UniProt P15291)
[2] = molecular target: full-length human B4GalT1 D315A fused to mVenus or mCherry (human) (UniProt P15291)
[3] = molecular target: full-length human B4GalT1 M340E fused to mVenus or mCherry (human) (UniProt P15291)

B1: full-length human wild-type B4GalT1 fused to mVenus or mCherry (protein, UniProt P15291 1-398)
chain: MRLREPLLSGSAAMPGASLQRACRLLVAVCALHLGVTLVYYLAGRDLSRLPQLVGVSTPLQGGSNSAAAIGQSSGELRTGGARPPPPLGASSQPRPGGDSSPVVDSGPGPASNLTSVPVPHTTALSLPACPEESPLLVGPMLIEFNMPVDLELVAKQNPNVKMGGRYAPRDCVSPHKVAIIIPFRNRQEHLKYWLYYLHPVLQRQQLDYGIYVINQAGDTIFNRAKLLNVGFQEALKDYDYTCFVFSDVDLIPMNDHNAYRCFSQPRHISVAMDKFGFSLPYVQYFGGVSALSKQQFLTINGFPNNYWGWGGEDDDIFNRLVFRGMSISRPNAVVGRCRMIRHSRDKKNEPNPQRFDRIAHTKETMLSDGLNSLTYQVLDVQRYPLYTQITVDIGTPS
B1 was tested, and the binding [1] was “binds”.

B2: full-length human B4GalT1 D315A fused to mVenus or mCherry (protein, UniProt P15291 1-398)
chain: MRLREPLLSGSAAMPGASLQRACRLLVAVCALHLGVTLVYYLAGRDLSRLPQLVGVSTPLQGGSNSAAAIGQSSGELRTGGARPPPPLGASSQPRPGGDSSPVVDSGPGPASNLTSVPVPHTTALSLPACPEESPLLVGPMLIEFNMPVDLELVAKQNPNVKMGGRYAPRDCVSPHKVAIIIPFRNRQEHLKYWLYYLHPVLQRQQLDYGIYVINQAGDTIFNRAKLLNVGFQEALKDYDYTCFVFSDVDLIPMNDHNAYRCFSQPRHISVAMDKFGFSLPYVQYFGGVSALSKQQFLTINGFPNNYWGWGGEDADIFNRLVFRGMSISRPNAVVGRCRMIRHSRDKKNEPNPQRFDRIAHTKETMLSDGLNSLTYQVLDVQRYPLYTQITVDIGTPS
With B2 the binding [2] was “binds”.

B3: full-length human B4GalT1 M340E fused to mVenus or mCherry (protein, UniProt P15291 1-398)
chain: MRLREPLLSGSAAMPGASLQRACRLLVAVCALHLGVTLVYYLAGRDLSRLPQLVGVSTPLQGGSNSAAAIGQSSGELRTGGARPPPPLGASSQPRPGGDSSPVVDSGPGPASNLTSVPVPHTTALSLPACPEESPLLVGPMLIEFNMPVDLELVAKQNPNVKMGGRYAPRDCVSPHKVAIIIPFRNRQEHLKYWLYYLHPVLQRQQLDYGIYVINQAGDTIFNRAKLLNVGFQEALKDYDYTCFVFSDVDLIPMNDHNAYRCFSQPRHISVAMDKFGFSLPYVQYFGGVSALSKQQFLTINGFPNNYWGWGGEDDDIFNRLVFRGMSISRPNAVVGRCREIRHSRDKKNEPNPQRFDRIAHTKETMLSDGLNSLTYQVLDVQRYPLYTQITVDIGTPS
B3 was tested, and the binding [3] was “binds”.
